This note sets out measurements from PubChem BioAssay AID248 (DTP/NCI, 2004).

The test system of the assay is L1210 leukemia ip in BDF1 mice, survival T/C. Put plainly: NCI In Vivo Anticancer Drug Screen. Data for tumor model L1210 Leukemia (intraperitoneal) in B6D2F1 (BDF1) mice. The settings on record: T/C endpoint: mean survival time, higher T/C = longer survival.
Where [1] appears, read: dose: 100.0 mg/kg/injection, schedule: Q04DX003 (ip), vehicle: Klucel (hydroxypropylcellulose) (HPC).
[2] abbreviates: dose: 200.0 mg/kg/injection, schedule: Q01DX009 (ip), vehicle: saline.
The mark [3] stands for this setting: dose: 200.0 mg/kg/injection, schedule: Q04DX003 (ip), vehicle: saline.
Setting [4] is: dose: 400.0 mg/kg/injection, schedule: Q04DX003 (ip), vehicle: saline.
The mark [5] stands for this setting: dose: 400.0 mg/kg/injection, schedule: Q01DX009 (ip), vehicle: saline with Tween-80.
The mark [6] stands for this setting: dose: 50.0 mg/kg/injection, schedule: Q04DX003 (ip), vehicle: saline.
Where [7] appears, read: dose: 100.0 mg/kg/injection, schedule: Q04DX003 (ip), vehicle: saline.
The mark [8] stands for this setting: dose: 100.0 mg/kg/injection, schedule: Q04DX003 (ip), vehicle: acetone.
Setting [9] is: dose: 200.0 mg/kg/injection, schedule: Q04DX003 (ip), vehicle: acetone.
Setting [10] is: dose: 400.0 mg/kg/injection, schedule: Q04DX003 (ip), vehicle: acetone.

The list is a part of this screen's results and no random one: it is rich in T/C values a quarter to a half above the control, in often repeated tests (any T/C) and in doses without a T/C. Other doses and runs of a compound stand elsewhere. T/C gives the treated animals as a percentage of the vehicle group. Some entries give survivors of the animals treated and no T/C: the source holds a T/C of zero for them, seemingly a mark for toxic or unscored doses. Some survivor counts are full or nearly so, which does not show that the dose was tolerated: survival well below the control is almost never listed, so the zero probably covers shortened survival too. Survivors were counted at the toxicity check, usually on the fifth day, unless a day is given; later deaths do not show. Schedules are NCI's codes, taken here to give the interval after Q, in days (D) or hours (H), and the number of doses after X. Some schedules carry Z or #; the key to these is not given. Some structures stand for samples that the source files as different forms (salt, stereo form or complex); doses refer to the form tested. Where survival is the endpoint, this PubChem deposit counts one and a half times the control or more as active, and values a quarter to a half above the control carry no call in these data; other NCI protocols may use other cut-offs. Some T/C values carry the count of animals alive at the toxicity check (mostly the fifth day); where none is given, no animal had died by that day.

Regarding `CCCCSCCOC(=O)C1C2CCC(O2)C1C(=O)O` (configuration not stated), the survivor count (dose: 50.0 mg/kg/injection, schedule: Q04DX003 (ip), vehicle: Klucel (hydroxypropylcellulose) (HPC)) is given as 0 of 6; the survivor count under setting [1] is reported as 0 of 6; the survivor count (dose: 200.0 mg/kg/injection, schedule: Q04DX003 (ip), vehicle: Klucel (hydroxypropylcellulose) (HPC)) is 0 of 6; the survivor count (dose: 400.0 mg/kg/injection, schedule: Q04DX003 (ip), vehicle: Klucel (hydroxypropylcellulose) (HPC)) is on record as 0 of 6.

`Cc1ccc2c(c1)CN(Cc1ccccc1)CO2`: the survivor count under setting [1] was 0 of 6.

As to `[Br][Pb]([Br])([c]1ccccc1)[c]1ccccc1`, for the setting “dose: 400.0 mg/kg/injection, schedule: Q01DX009 (ip), vehicle: Klucel (hydroxypropylcellulose) (HPC)”, the survivor count is listed as 2 of 6.

For `CCCCCCCCC(=O)N1CCN(C)CC1`, the survivor count by setting is: (dose: 200.0 mg/kg/injection, schedule: Q04DX002 (ip), vehicle: saline) 1 of 3; (dose: 400.0 mg/kg/injection, schedule: Q04DX002 (ip), vehicle: saline) 0 of 3.

For the compound `CC1=C/C(=N/N(C)C)CC(C)C1` (configuration not stated), the survivor count was 2 of 6 (dose: 100.0 mg/kg/injection, schedule: Q01DX009 (ip), vehicle: saline); 4 of 6 under setting [2]; 0 of 6 (dose: 400.0 mg/kg/injection, schedule: Q01DX009 (ip), vehicle: saline).

As to `COC(=O)NS(=O)(=O)/C=C\n1c2ccccc2c2ccccc21`, the survivor count (dose: 300.0 mg/kg/injection, schedule: Q01DX009 (ip), vehicle: Klucel (hydroxypropylcellulose) (HPC)) is 1 of 6.

Turning to `C=CCCCCCCCC/C=N\NC(=O)c1ccc[n+](C)c1`, the survivor count under setting [2] is reported as 0 of 3.

With `CC1(c2cccs2)C(=O)N(Cl)C(=O)N1Cl` (configuration not stated), the survivor count runs as follows: under setting [3], 3 of 6; under setting [4], 0 of 6.

Consider `O=Cc1[nH]c(=S)[nH]c(=O)c1Cc1ccc2ccccc2c1`, for which the survivor count (dose: 400.0 mg/kg/injection, schedule: Q01DX001 (ip), vehicle: saline with Tween-80) is on record as 3 of 6.

With `NC(=O)c1n[nH]nc1N1CC[N+](CCCl)=N1`, the T/C runs as follows: (dose: 200.0 mg/kg/injection, schedule: Q01DX009 (ip), vehicle: saline with Tween-80) 128 % of control; under setting [5], 127 % of control; (dose: 400.0 mg/kg/injection, schedule: Q04DX003 (ip), vehicle: saline with Tween-80) 125 % of control.

Take `C#CC(=O)OC`: the survivor count by setting is: (dose: 12.5 mg/kg/injection, schedule: Q04DX003 (ip), vehicle: saline) 2 of 6; (dose: 25.0 mg/kg/injection, schedule: Q04DX003 (ip), vehicle: saline) 1 of 6; under setting [6], 0 of 6; under setting [7], 0 of 6; under setting [3], 0 of 6; under setting [4], 0 of 6.

With `Cc1c(Cl)cccc1NC(=O)CCl`, the survivor count under setting [5] is 0 of 6.

Regarding `Sc1ccccc1.[Pb]`, the survivor count (dose: 150.0 mg/kg/injection, schedule: Q01DX009 (ip), vehicle: Klucel (hydroxypropylcellulose) (HPC)) is on record as 6 of 6.

Consider `N#CCOC(=O)c1ccccc1`, for which the survivor count is recorded as 0 of 6 (dose: 75.0 mg/kg/injection, schedule: Q01DX001 (ip), vehicle: saline); 0 of 6 (dose: 150.0 mg/kg/injection, schedule: Q01DX001 (ip), vehicle: saline); 0 of 6 (dose: 300.0 mg/kg/injection, schedule: Q01DX001 (ip), vehicle: saline).

On to `CN(Cc1cnc2nc(N)nc(N)c2n1)c1c(Cl)cc(C(=O)NC(CCC(=O)O)C(=O)O)cc1Br` (configuration not stated), for which the T/C was 143 % of control (dose: 6.25 mg/kg/injection, schedule: Q01DX Z (ip), vehicle: saline) and 125 % of control (dose: 100.0 mg/kg/injection, schedule: Q01DX Z (ip), vehicle: saline). Besides, the survivor count (dose: 400.0 mg/kg/injection, schedule: Q01DX Z (ip), vehicle: saline) was 5 of 6.

Take `COc1cccnc1/C=N/NC(N)=S`: the T/C is 131 % of control (dose: 3.13 mg/kg/injection, schedule: Q01DX009 (ip), vehicle: saline with Tween-80) and 142 % of control (dose: 6.25 mg/kg/injection, schedule: Q01DX009 (ip), vehicle: saline with Tween-80). The survivor count is, setting by setting: (dose: 100.0 mg/kg/injection, schedule: Q04DX002 (ip), vehicle: saline with Tween-80) 0 of 3; (dose: 200.0 mg/kg/injection, schedule: Q04DX002 (ip), vehicle: saline with Tween-80) 0 of 3; (dose: 400.0 mg/kg/injection, schedule: Q04DX002 (ip), vehicle: saline with Tween-80) 0 of 3.

On to `CCCCN(C(=O)C(F)(F)F)C(C)(C)C(SSSC(c1cccs1)C(C)(C)N(CCCC)C(=O)C(F)(F)F)c1cccs1` (configuration not stated), for which, under “dose: 400.0 mg/kg/injection, schedule: Q01DX009 (ip), vehicle: saline sonified”, the survivor count is 5 of 6.

Consider `CCCCCCCCCCCCSC(=N)N`, for which the survivor count (dose: 50.0 mg/kg/injection, schedule: Q01DX009 (ip), vehicle: acetone) was 3 of 6; the survivor count (dose: 75.0 mg/kg/injection, schedule: Q04DX003 (ip), vehicle: saline) is 4 of 6; the survivor count under setting [8] is 5 of 6; the survivor count (dose: 170.0 mg/kg/injection, schedule: Q04DX003 (ip), vehicle: saline) was 3 of 6; the survivor count under setting [9] is 3 of 6; the survivor count under setting [3] is 1 of 6. Moreover, the survivor count reads like this: under setting [10], 0 of 6; under setting [4], 0 of 6. Further, the T/C under setting [6] is 135 % of control [5 of 6 alive].

In the case of `N#Cc1c(N)n(C2OC(CO)C(O)C2O)c2ncnc(N)c12` (configuration not stated), the T/C (dose: 4.0 mg/kg/injection, schedule: Q01DX005 (ip), vehicle: saline) is 130 % of control and the T/C (dose: 8.0 mg/kg/injection, schedule: Q01DX005 (ip), vehicle: saline) was 132 % of control. Further, the survivor count is recorded as 3 of 6 (dose: 12.5 mg/kg/injection, schedule: Q01DX005 (ip), vehicle: saline); 0 of 6 (dose: 25.0 mg/kg/injection, schedule: Q01DX005 (ip), vehicle: saline); 0 of 6 (dose: 50.0 mg/kg/injection, schedule: Q01DX005 (ip), vehicle: saline); 0 of 6 (dose: 100.0 mg/kg/injection, schedule: Q01DX005 (ip), vehicle: saline); 0 of 6 (dose: 200.0 mg/kg/injection, schedule: Q01DX005 (ip), vehicle: saline).

On to `CCN(CC)CCCCN(C)c1ccccc1`, for which the survivor count was 2 of 6 under setting [8], 0 of 6 under setting [9] and 0 of 6 under setting [10].

Take `CCC(C)N(C)N=Nc1ccc(C(N)=O)cc1` (configuration not stated): the survivor count runs as follows: (dose: 400.0 mg/kg/injection, schedule: Q01DX001 (ip), vehicle: other) 0 of 4; (dose: 600.0 mg/kg/injection, schedule: Q01DX001 (ip), vehicle: other) 0 of 4.

In the case of `CSc1ncnc2c1N=CNN2`, the survivor count runs as follows: (dose: 200.0 mg/kg/injection, schedule: Q01DX001 (ip), vehicle: carboxymethylcellulose (CMC)) 0 of 6; (dose: 400.0 mg/kg/injection, schedule: Q01DX001 (ip), vehicle: carboxymethylcellulose (CMC)) 0 of 6.

Regarding `Nc1ccc(Nc2c3ccccc3nc3ccccc23)cc1`, the survivor count runs as follows: under setting [7], 2 of 6; under setting [3], 0 of 6; under setting [4], 0 of 6.

On to `CCCCCCCN=C(N)c1ccc(C(=O)OC2CCCCC2)cc1`, for which the survivor count is 6 of 6 (dose: 200.0 mg/kg/injection, schedule: Q01DX001 (ip), vehicle: saline) and 0 of 6 (dose: 400.0 mg/kg/injection, schedule: Q01DX001 (ip), vehicle: saline).
